This is one part of the list. Further columns of the screen follow, without active or inactive calls. Most of these compounds were active or inconclusive in the main read-out, so they are no random draw. The note in brackets gives the kind of curve behind each potency; many fits are weak.
Assay: qHTS Assay for Lipid Storage Modulators in Drosophila S3 Cells;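 for cell number change: cells counted by Cell Tracker Red CMTPX staining in the red channel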
Conditions: BODIPY lipid droplet fluorescence, 18-24 h; for cell number change: measured here: cell count max response, cells fed with added oleic acid
In short: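 Drosophila S3 cells loaded with oleic acid (400 uM, as added) and compounds at several concentrations; lipid droplets imaged by 488-nm laser-scanning cytometry, 500–530 nm intensity and object ratio to cell channel. Percent activity normalized to 20 uM Triacsin C.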

[1] = measured here: lipid fluorescence (Fed channel) AC50, cells fed with added oleic acid
[2] = measured here: cell number channel AC50, cells fed with added oleic acid

Compound	cell number change	AC50 [1]	AC50 [2]
O=C(CNS(=O)(=O)c1ccccc1)NCc1ccco1	18.4%	29.1 µM [rising, single point]	–
COc1cccc(/C=C2/SC(=S)N(CCCC(=O)Nc3ccc(O)cc3)C2=O)c1	-44.6%	11.6 µM [falling, partial curve]	16.4 µM [falling, single point]
O=C(c1ccco1)N1CCN(c2cc(C(F)(F)F)nc3ncnn23)CC1	3.56%	5.17 µM [falling, partial curve]	–
COc1ccc(C(=O)OCC(=O)Nc2ccc3c(c2)OCO3)cc1S(=O)(=O)N1CCOCC1	-35%	29.1 µM [falling, single point]	32.6 µM [falling, single point]
COc1ccc(CNC(=O)CCSCc2ccc(C)cc2)cc1	29.3%	32.6 µM [rising, single point]	–
O=C(O)Cc1ccc(NC(=O)COc2ccc3ccccc3c2)cc1	43.1%	0.103 µM [rising, full curve]	–
O=C(NCCCN1CCOCC1)c1ccc(S(=O)(=O)N2CCOCC2)cc1	-54.1%	0.116 µM [falling, full curve, poor fit]	29.1 µM [falling, single point]
COc1ccc(OCC(O)CN2CCCCC2)cc1 (centres undefined)	–	29.1 µM [rising, single point]	–
CCCc1[nH]n(-c2nc3ccccc3s2)c(=O)c1C=NCCN1CCOCC1	35.7%	–	6.51 µM [rising, partial curve]
O=S(=O)(c1cccc(C(F)(F)F)c1)N1CCC(c2nc3ccccc3[nH]2)CC1	–	0.58 µM [falling, full curve]	–
CCNC(=S)N/N=C/c1cn(Cc2ccc(F)cc2)c2ccccc12	-11.6%	1.84 µM [rising, full curve, poor fit]	–
Cc1ccc(S(=O)(=O)Nc2cc(C)c(O)c(Sc3n[nH]c(C)n3)c2)cc1	-11.7%	29.1 µM [rising, single point]	–
Cc1cccc(CN2CCc3c(OCC(=O)N4CCCc5ccccc54)cccc3C2=O)c1	-30.9%	23.1 µM [falling, single point]	29.1 µM [falling, single point]
CC(=O)c1c(C(C)=O)c(C)n(-c2ccc(N)cc2)c1C	38.2%	–	7.31 µM [rising, partial curve]
Cc1noc(C)c1S(=O)(=O)Nc1ccc(C(=O)NCCc2ccccc2)cc1	3.43%	0.58 µM [falling, single point]	–
CC(C)c1onc(C(=O)N2CCN(c3ccc(F)cc3)CC2)c1[N+](=O)[O-]	–	3.66 µM [rising, single point]	–
O=C(CNC(=O)c1ccccc1)OCC(=O)N1c2ccccc2Sc2ccccc21	-60.8%	0.411 µM [falling, full curve]	29.1 µM [falling, single point]
O=C(O)C1C2C=CC(O2)C1C(=O)Nc1ccccc1C(F)(F)F (centres undefined)	1.26%	0.651 µM [falling, single point]	–
O=C(Cn1cnc2c(nnn2Cc2ccc(F)cc2)c1=O)NCc1ccc(F)cc1	-8.05%	1.16 µM [falling, single point]	1.16 µM [falling, single point]
O=[N+]([O-])c1ccc(COc2cccnc2)cc1	90.9%	–	20.6 µM [rising, single point]
CN1C(=S)N(c2ccccc2)C(=O)/C1=C/c1cccs1	7.88%	9.2 µM [rising, partial curve, poor fit]	–

Compound	cell number change	AC50 [1]	AC50 [2]
CCOc1cc(-c2nc(-c3ccccc3)c(-c3cc([N+](=O)[O-])ccc3C)[nH]2)ccc1O	-40.1%	13 µM [falling, partial curve]	7.31 µM [falling, partial curve]
CC1CN(c2oc(COc3ccc(Cl)cc3Cl)nc2C#N)CC(C)O1 (centres undefined)	-25.7%	29.1 µM [falling, single point]	–
COc1ccc(CCNC(=O)c2cc(C3CC3)on2)cc1OC	-1.17%	0.0517 µM [falling, full curve, poor fit]	–
CC(C)(C)SCCNC(=O)c1ccc(CN2CCc3ccccc3C2)cc1	10.4%	1.84 µM [rising, partial curve, poor fit]	–
CC1CCCCN1C(=O)Nc1ccccc1Cl (centres undefined)	17.3%	0.731 µM [falling, single point]	0.731 µM [falling, single point]
Cc1nc(C#N)c(N/N=C/c2cccc(Cl)c2)o1	27.3%	–	–
Cn1cnc2cc(NCc3ccccc3O)ccc21	-30.7%	–	5.8 µM [falling, full curve, poor fit]
CSc1cccc(CNC(=O)C2CCC(=O)N(CCCN3CCCC3=O)C2)c1 (centres undefined)	-10.3%	14.6 µM [rising, partial curve]	–
CCn1c(C(=O)NCCCc2ccccc2)cc2sccc21	7.49%	0.206 µM [rising, full curve, poor fit]	–
Cc1nnc(SCC(=O)Nc2ccc3c(c2)OCO3)n(N)c1=O	5.55%	6.51 µM [falling, single point]	–
O=C(COC(=O)c1ccc(O)cc1O)Nc1nnc(-c2ccccc2)o1	22.5%	–	–
CC(C)c1ccc(C(=O)N2CCCN(C(=O)c3ccc(C(C)C)cc3)CC2)cc1	-38.5%	29.1 µM [falling, single point]	16.4 µM [falling, single point]
Cc1cccc(C)c1NC(=O)C1(NC(=O)C2CCC(=O)N2)CCCCC1 (centres undefined)	25.5%	0.461 µM [rising, full curve, poor fit]	–
O=C(NC1CCCC1)c1cc2c(ccc3ccccc32)o1	57.7%	–	3.26 µM [rising, full curve]
COc1ccc2cc(S(=O)(=O)NCCCN3CCOCC3)ccc2c1	8.25%	–	–
COc1cc(C(=O)NNC(=O)C2CC2)cc(OC)c1OC	–	29.1 µM [falling, single point]	–
S=c1[nH]nc(-c2cccnc2)n1Cc1ccccc1	-29.4%	–	0.82 µM [falling, full curve, poor fit]
S=c1[nH]nc(-c2ccco2)n1/N=C/c1ccc(Cl)cc1	-27%	8.2 µM [falling, partial curve]	–
Cc1cc(C(=O)NC2CCCCC2C)c2ccccc2n1 (centres undefined)	-1.7%	–	–
O=C(/C=C/c1ccc([N+](=O)[O-])cc1)NNC(=O)C1CC1	49%	–	20.6 µM [rising, single point]
COc1ccc(C(=O)C2CCCN(C(=O)c3ccnn3C)C2)cc1OC (centres undefined)	7.76%	–	–

Exported with each value named: three of the compounds above
COc1ccc(OCC(O)CN2CCCCC2)cc1 (centres undefined)
  AC50 [1]: 29.1 µM [rising, single point]
CCCc1[nH]n(-c2nc3ccccc3s2)c(=O)c1C=NCCN1CCOCC1
  cell number change: 35.7%; AC50 [2]: 6.51 µM [rising, partial curve]
O=S(=O)(c1cccc(C(F)(F)F)c1)N1CCC(c2nc3ccccc3[nH]2)CC1
  AC50 [1]: 0.58 µM [falling, full curve]

Full records, looked up by structure. Values in the order: cell number change	AC50 [1]	AC50 [2]
`O=C(O)C1C2C=CC(O2)C1C(=O)Nc1ccccc1C(F)(F)F` (centres undefined) as listed: 1.26%	0.651 µM [falling, single point]	–
`COc1ccc(CCNC(=O)c2cc(C3CC3)on2)cc1OC` as listed: -1.17%	0.0517 µM [falling, full curve, poor fit]	–

Following part.

Compound	cell number change	AC50 [1]	AC50 [2]
COc1cccc2sc(N3CCN(C(=O)c4ccc([N+](=O)[O-])o4)CC3)nc12	-25%	–	3.66 µM [rising, single point]
COc1cc(OC)c(NC2=CC(=O)C(=O)c3ccccc32)cc1Cl	-47.2%	7.31 µM [falling, partial curve]	2.91 µM [falling, full curve]
Cc1ccc(N(C)/N=C/c2ccc(Cl)cc2Cl)nn1	-5.67%	–	0.92 µM [rising, full curve, poor fit]
CCOC(=O)c1c(NC(=O)C(C)S(=O)(=O)c2cn(CC)c3ccccc23)sc2c1CCCC2 (centres undefined)	-22.6%	0.92 µM [falling, full curve]	–
N#C/C(=C/c1ccc(N2CCCCC2)cc1)c1cccc(F)c1	-8.83%	29.1 µM [falling, single point]	–
COc1ccccc1C(=O)NCC(=O)N/N=C/c1cc(Br)ccc1OC(=O)/C=C\c1ccco1	0.705%	–	–
Cc1cc(C)cc(NC2=NC3(CCCCC3)N=C(N)N2)c1	11.8%	29.1 µM [falling, single point]	–
Cc1cc(C)c(C2=CC(=O)C[C@H](c3ccc4c(c3)OCO4)C2)c(C)c1	-24.1%	–	–
C#CCn1c(O)c(N=NC(=O)CNC(=O)/C=C/c2ccccc2)c2ccccc21	–	29.1 µM [falling, single point]	–
Cn1c(C(=O)OCC(=O)NCc2ccco2)cc2sccc21	-19.6%	–	–
O=C(O)c1ccc(-n2cccc2/C=N\NC(=O)c2cc3cc(Br)ccc3o2)cc1	21.3%	3.26 µM [rising, full curve]	–
Cc1ccc(OC(C)C(=O)N(Cc2cccs2)C2CCS(=O)(=O)C2)cc1C (centres undefined)	16.1%	14.6 µM [rising, single point]	–
COc1ccc(CCNC(=O)C2CC(=O)N(c3ccc(C)cc3)C2)cc1OC (centres undefined)	32.6%	–	0.00461 µM [rising, full curve, poor fit]
CC(CC12CC3CC(CC(C3)C1)C2)NCc1ccccc1O (centres undefined)	-21.2%	–	–
O=C(NCC(c1ccco1)N1CCOCC1)c1ccc([N+](=O)[O-])cc1 (centres undefined)	-44.3%	–	29.1 µM [falling, single point]
O=C(CSc1ncn(-c2ccccc2)n1)Nc1nncs1	0.656%	0.461 µM [rising, partial curve]	–
Cc1ccc(Cn2c(C(C)Nc3nc(-c4ccc(C)cc4)cs3)nc3cc(Cl)c(Cl)cc32)cc1 (centres undefined)	45.8%	–	8.2 µM [rising, partial curve]
CCOc1cc(/C=C/c2cccc[n+]2C)ccc1O	16.3%	0.411 µM [falling, single point]	–
COc1ccc(NC(=O)CCCn2cc([N+](=O)[O-])cn2)cc1	–	–	3.26 µM [falling, single point]
O=C(c1ccc2c(c1)OCO2)C1CCCN(C(=O)c2cnn(Cc3ccccc3)c2)C1 (centres undefined)	-9.01%	0.411 µM [rising, full curve, poor fit]	–

From PubChem BioAssay AID2685 (National Center for Advancing Translational Sciences (NCATS), 2010)
